The assay can be described thus: qHTS Assay to Find Inhibitors of Chronic Active B-Cell Receptor Signaling. The settings on record: ABC-DLBCL IkBa-CBG/CBR reporter, luminescence ratio (green luciferase fused to IkBa over red control in TMD8 lymphoma cells), 4 h. The method in brief: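 Compounds up to 46 uM were incubated four hours with TMD8 cells whose green CBG68 luciferase is fused to IkappaBalpha; red CBR luminescence normalised the signal, and concentration-effect curves were fitted to fusion, red and ratio data.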

[1] abbreviates: measured here: CBR red luminescence, cell number.
[2] abbreviates: measured here: IkBa-CBG green luminescence.

From PubChem BioAssay AID493014 (National Center for Advancing Translational Sciences (NCATS), 2011) come the findings set out here.

The other results are listed elsewhere or left out. Further columns of the screen follow, without active or inactive calls. Most of these compounds were active or inconclusive in the main read-out, so they are no random draw. Words in brackets tell the shape of the fitted curve; partial curves, single points and poor fits give uncertain potencies.

As a reminder, the AC50 is the midpoint of the concentration-response curve, whichever way the signal moves. For the compound `Cc1ccc(-c2noc(CSc3nnc(Cc4cccs4)n3-c3ccccc3)n2)cc1`, the half-maximal activity concentration (AC50) under setting [1] is 25.9 µM [falling, single point].

In the case of `Cc1cc2c(=O)n(C)c(SCC(=O)c3cc4ccccc4o3)nc2s1`, the AC50 under setting [1] was 0.103 µM [rising, full curve, poor fit].

Turning to `Cc1[nH]c2ccccc2c1/C=N/NC(=O)c1cccc(F)c1`, the half-maximal activity concentration (AC50) under setting [1] is 35.5 µM [falling, single point].

`CCCC[C@@H]1C=C(C(=O)O)[C@H](c2ccc(Cl)c(Cl)c2)N1S(=O)(=O)c1ccc(C)cc1`: under setting [1], the AC50 is 32.6 µM [falling, single point].

Turning to `COc1ccc(/C=N/NC(=O)c2ccc[nH]2)cc1`, the half-maximal activity concentration (AC50) under setting [1] is 11.2 µM [falling, partial curve, poor fit].

On to `O=c1c2ccccc2nc(COc2ccccc2)n1/N=C/c1ccco1`, for which the AC50 under setting [1] was 15.8 µM [falling, single point].

As to `CSc1nc(-c2ccc(Cl)cc2Cl)[nH]c(=O)c1C#N`, the concentration at half-maximal activity (AC50) under setting [1] was 2.31 µM [rising, full curve, poor fit].

For the compound `c1ccc2nc(-c3ccncc3)ccc2c1`, under setting [1], the concentration at half-maximal activity (AC50) is 35.5 µM [rising, single point].

In the case of `O=C(CSc1ccccc1C(=O)O)Nc1cccc(C(=O)O)c1`, the AC50 under setting [1] is 15.8 µM [falling, partial curve].

In the case of `CCn1c(C)cc(/C=C2/NC(=O)N(Cc3ccccc3F)C2=O)c1C`, the AC50 under setting [1] was 29.1 µM [falling, single point].

For `CC(C(=O)Nc1cccc([N+](=O)[O-])c1)[n+]1ccccc1` (stereo not drawn), the AC50 under setting [1] is 35.5 µM [falling, single point].

`COc1cc(C2=Nc3c(c(C)nn3-c3ccccc3)P(=O)(N3CCOCC3)O2)cc(OC)c1OC` (stereo not drawn): the concentration at half-maximal activity (AC50) under setting [1] is 9.2 µM [falling, single point] and the AC50 under setting [2] was 29.1 µM [rising, partial curve, poor fit].

With `O=C(Nc1cccc(Cl)c1)c1ccc(F)c(S(=O)(=O)N2CCN(c3ccccn3)CC2)c1`, the concentration at half-maximal activity (AC50) under setting [1] was 9.2 µM [falling, partial curve].

For the compound `O=C(Nc1ccc(NC(=O)c2ccccc2Cl)nc1)c1ccncc1`, the AC50 under setting [1] was 7.94 µM [falling, partial curve, poor fit].

In the case of `Cc1cc(Br)cc2c1NC(=O)C2(O)CC(=O)c1ccco1` (stereo not drawn), the concentration at half-maximal activity (AC50) under setting [2] was 22.4 µM [falling, single point].

Turning to `CCOc1ccc(CC(=O)NNC(=S)NC)cc1Br`, the AC50 under setting [1] is 15.8 µM [rising, single point].

Regarding `CCOc1ccc(OCCC(=O)N2CCN(S(=O)(=O)c3ccc(F)cc3)CC2)cc1`, the AC50 under setting [1] is 0.013 µM [rising, full curve, poor fit].

With `O=Cc1ccccc1OCc1ccc2c(c1)OCO2`, the AC50 by setting is: under setting [1], 3.55 µM [rising, single point]; under setting [2], 10 µM [falling, partial curve].

With `C/C(=N/Nc1ccc(C)cc1)C1(C)N(O)C(C)(C)C(c2ccco2)=[N+]1[O-]` (stereo not drawn), under setting [1], the AC50 was 7.08 µM [rising, partial curve, poor fit].

As to `O=C(Cc1ccc(F)cc1)NCCc1ccc(F)cc1`, the AC50 under setting [1] is 2.31 µM [falling, single point].

In the case of `COc1cc(C(=O)N/N=C(\C)c2ccc(NC(=O)Cc3ccccc3)cc2)ccc1O`, under setting [1], the AC50 was 11.2 µM [falling, partial curve].

Take `O=C(CN1C(=O)C2C3C=CC(C3)C2C1=O)NCCC1=CCCCC1` (stereo not drawn): the half-maximal activity concentration (AC50) under setting [1] was 11.6 µM [rising, partial curve, poor fit].

Take `Cc1cccc(C(=O)Nc2ccc(C(=O)N/N=C/c3cccc(C)n3)cc2)c1`: the AC50 under setting [1] was 14.1 µM [falling, partial curve, poor fit].

For the compound `Cc1nc2cc(-c3ccccc3)sc2c(=O)n1N`, the half-maximal activity concentration (AC50) under setting [1] is 7.08 µM [falling, partial curve].

With `COc1cc(C2C(C(=O)c3ccc(C)o3)=C(O)C(=O)N2c2cc(C)on2)cc(Br)c1O` (stereo not drawn), the half-maximal activity concentration (AC50) under setting [1] was 3.26 µM [falling, single point].

Take `O=C1c2cccc3cccc(c23)C(=O)N1/N=C/c1ccc(O)cc1O`: the concentration at half-maximal activity (AC50) under setting [1] is 14.6 µM [falling, partial curve, poor fit].

With `O=S(=O)(c1ccc2c(c1)OCCO2)N1CCC(n2cnc3cc(F)ccc32)CC1`, under setting [1], the half-maximal activity concentration (AC50) was 3.16 µM [falling, single point].

As for `Cc1ccsc1/C=N/Nc1ncc(Cl)cc1Cl`, the AC50 under setting [1] was 6.51 µM [falling, partial curve].

`CCOC(=O)CC(=O)CSc1nc2ccccc2c(=O)n1CCc1ccc(S(N)(=O)=O)cc1`: the AC50 under setting [1] is 35.5 µM [falling, single point].

Regarding `COc1cccc(C(=O)O/N=C(\N)c2ccncc2)c1OC`, the AC50 reads like this: under setting [1], 16.4 µM [falling, single point]; under setting [2], 29.1 µM [falling, partial curve, poor fit].

`NNC(=O)c1snnc1-c1ccccc1`: the concentration at half-maximal activity (AC50) under setting [1] is 3.16 µM [rising, single point].

In the case of `CC(Sc1nnc(C2CC2)n1C1CC1)C(=O)NC1(C#N)CCCCC1` (stereo not drawn), under setting [1], the concentration at half-maximal activity (AC50) was 16.4 µM [rising, single point].

Take `C#CC1(NC(=O)NS(=O)(=O)c2ccc(C)cc2)CCCCC1`: the AC50 under setting [1] was 11.2 µM [rising, partial curve].

In the case of `O=C(C[n+]1ccc(/C=N/O)cc1)N(Cc1ccccc1)Cc1ccccc1`, the concentration at half-maximal activity (AC50) under setting [1] is 6.31 µM [falling, partial curve, poor fit].

`CC(=O)NC(Cc1cccc(C)c1)C(=O)NC1CCN(C(=O)NCc2ccccc2)CC1` (stereo not drawn): the AC50 under setting [1] is 12.6 µM [falling, partial curve, poor fit].

Regarding `Cn1c(N)c(N=Nc2ccc(S(N)(=O)=O)cc2)c(=O)n(C)c1=O`, the AC50 under setting [1] is 0.501 µM [falling, full curve, poor fit].

`O=C1NC(=Nc2ccccc2)S/C1=C/c1cccs1`: the AC50 under setting [1] was 3.55 µM [falling, full curve, poor fit].

Turning to `CC(C)(C)C1CCC2(CC1)C(C#N)=C(SCC(=O)Nc1ccccc1)NC(=O)C2C#N` (stereo not drawn), the AC50 was 18.4 µM [falling, partial curve, poor fit] under setting [1] and 11.6 µM [rising, partial curve, poor fit] under setting [2].

For `Cc1ccc(-c2ccc(/C=C/C(=O)c3ccccc3)o2)cc1`, the concentration at half-maximal activity (AC50) under setting [1] is 1.3 µM [rising, full curve, poor fit].
